From publication PMC10707181, “Neuronal Scaffold Protein ARMS Interacts with Synaptotagmin-4 C2AB through the Ankyrin Repeat Domain with an Unexpected Mode” (International Journal of Molecular Sciences, 2023)
Numbering of substitutions follows the chain as printed. Names may count otherwise. No constants are given. Whether binding was seen depends on the method and setting. One block for each binder: values may come before it.

Chains of the proteins cited; added tags and fusions are not shown. Residues count along the entry.
UniProt P21579, residues 140-422: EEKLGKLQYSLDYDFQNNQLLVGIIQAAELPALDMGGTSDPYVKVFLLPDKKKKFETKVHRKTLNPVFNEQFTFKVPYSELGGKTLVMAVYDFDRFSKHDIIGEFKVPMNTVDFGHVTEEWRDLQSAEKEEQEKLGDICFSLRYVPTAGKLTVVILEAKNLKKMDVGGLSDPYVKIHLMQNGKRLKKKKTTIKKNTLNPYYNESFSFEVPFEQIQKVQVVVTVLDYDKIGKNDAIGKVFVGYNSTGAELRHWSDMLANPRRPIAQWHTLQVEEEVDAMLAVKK

Assays:
[1] = molecular target: T1, Syt4 C2AB (residues 151–425) (human, UniProt Q9H2B2-1 151-425); assay: SEC; analytical gel filtration chromatography (AGFC) of the single proteins and their mixture (1:1 told for ARMS NT and Syt4 CD); Superose 12 or Superdex 200 increase column; 50 mM Tris, 100 mM NaCl, 1 mM EDTA, 1 mM DTT, pH 7.8; both purified
T1 construct: also called Syt4 CAB; source: E. coli BL21 (DE3), purified (Ni-NTA, size-exclusion chromatography)
T1 sequence (looked up): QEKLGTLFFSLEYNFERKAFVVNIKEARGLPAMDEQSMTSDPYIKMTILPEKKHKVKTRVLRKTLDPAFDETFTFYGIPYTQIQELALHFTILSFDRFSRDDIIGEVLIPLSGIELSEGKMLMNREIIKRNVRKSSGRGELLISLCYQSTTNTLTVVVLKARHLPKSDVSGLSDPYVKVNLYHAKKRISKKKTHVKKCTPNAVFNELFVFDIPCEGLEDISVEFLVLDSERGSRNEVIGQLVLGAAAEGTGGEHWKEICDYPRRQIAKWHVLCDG

Syt4 132–425 = molecular target: T2, Syt4 132–425 (human, UniProt Q9H2B2-1 132-425); assay: condition: ARMS 200 μM in the syringe, Syt4 20 μM in the cell; ITC; ARMS proteins (200 μM) in the syringe, Syt4 proteins (20 μM) in the cell; 25 °C; 50 mM Tris, 100 mM NaCl, 1 mM EDTA, 1 mM DTT, pH 7.8; one-site binding model; both purified
T2 chain: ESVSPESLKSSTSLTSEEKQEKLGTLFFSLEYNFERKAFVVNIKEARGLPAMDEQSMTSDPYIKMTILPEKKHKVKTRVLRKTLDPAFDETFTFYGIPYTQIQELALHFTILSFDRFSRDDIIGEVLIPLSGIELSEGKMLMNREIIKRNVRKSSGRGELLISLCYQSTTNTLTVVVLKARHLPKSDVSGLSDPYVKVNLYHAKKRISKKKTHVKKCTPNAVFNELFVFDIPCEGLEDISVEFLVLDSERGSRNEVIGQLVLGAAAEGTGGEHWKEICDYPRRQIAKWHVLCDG

[2] = molecular target: T3, Syt4 C2A-L (residues 151–290) (human) (UniProt Q9H2B2); assay: SEC; analytical gel filtration chromatography (AGFC) of the single proteins and their mixture (1:1 told for ARMS NT and Syt4 CD); Superose 12 or Superdex 200 increase column; 50 mM Tris, 100 mM NaCl, 1 mM EDTA, 1 mM DTT, pH 7.8; both purified
T3 sequence: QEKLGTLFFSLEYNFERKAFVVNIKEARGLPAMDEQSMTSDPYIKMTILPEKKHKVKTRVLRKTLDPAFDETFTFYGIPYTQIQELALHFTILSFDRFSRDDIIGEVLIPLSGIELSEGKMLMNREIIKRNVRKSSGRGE

[3] = molecular target: T4, Syt4 L-C2B (residues 279–425) (human) (UniProt Q9H2B2); assay: as above
T4 sequence: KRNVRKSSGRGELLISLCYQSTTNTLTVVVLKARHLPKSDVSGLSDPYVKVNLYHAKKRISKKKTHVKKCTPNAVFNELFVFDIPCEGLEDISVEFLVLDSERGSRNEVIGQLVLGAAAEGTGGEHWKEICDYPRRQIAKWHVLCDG

[4] = molecular target: Syt1 C2AB (residues 140–422) (human) (UniProt P21579); assay: as above
[5] = molecular target: T5, Syt3 C2AB (residues 292–587) (human) (UniProt Q9BQG1); assay: as above
T5 sequence: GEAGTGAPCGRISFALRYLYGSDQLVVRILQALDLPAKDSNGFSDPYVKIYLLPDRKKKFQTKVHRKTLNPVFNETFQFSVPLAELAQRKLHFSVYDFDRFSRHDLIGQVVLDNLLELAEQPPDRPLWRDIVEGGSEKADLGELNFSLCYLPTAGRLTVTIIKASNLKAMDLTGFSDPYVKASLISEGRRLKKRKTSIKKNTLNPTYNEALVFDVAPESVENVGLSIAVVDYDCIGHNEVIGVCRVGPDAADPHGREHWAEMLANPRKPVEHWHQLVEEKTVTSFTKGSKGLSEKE

[6] = molecular target: T6, Syt4 linker (residues 41–150) (human) (UniProt Q9H2B2); assay: as above
T6 sequence: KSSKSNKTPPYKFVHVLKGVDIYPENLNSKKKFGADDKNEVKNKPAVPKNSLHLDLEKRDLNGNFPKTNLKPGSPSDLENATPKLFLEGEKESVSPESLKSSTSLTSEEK

binding [1]: no binding
B1: ARMS R2-11 protein (residues 35–365) (domain or fragment, UniProt Q9EQG6 35-365)
chain: NECGQTPLMLAAEQGNVEIVKELLKNGANCNLEDLDNWTALISASKEGHIHIVEELLKSGASLEHRDMGGWTALMWACYKGRTDVVELLLSHGANPSVTGLYSVYPIIWAAGRGHADIVHLLLQNGAKVNCSDKYGTTPLVWAARKGHLECVKHLLAMGADVDQEGANSMTALIVAVKGGYTQSVKEILKRNPNVNLTDKDGNTALMIASKEGHIEIVQDLLDAGTYVNIPDRSGDTVLIGAVRGGHVEIVRALLQKYADIDIRGQDNKTALYWAVEKGNATMVRDILQCNPDTEICTKDGETPLIKATKMRNIEVVELLLDKGAKVSAVD

binding [1]: no binding
B2: ARMS R1-6 (residues 1–191) (domain or fragment, UniProt Q9EQG6 1-191)
chain: MSVLISQSVINYVEEENIPALKALLEKCKDVDERNECGQTPLMLAAEQGNVEIVKELLKNGANCNLEDLDNWTALISASKEGHIHIVEELLKSGASLEHRDMGGWTALMWACYKGRTDVVELLLSHGANPSVTGLYSVYPIIWAAGRGHADIVHLLLQNGAKVNCSDKYGTTPLVWAARKGHLECVKHLLA

binding [1]: no binding
B3: ARMS R1-5 (residues 1–160) (domain or fragment, UniProt Q9EQG6 1-160)
chain: MSVLISQSVINYVEEENIPALKALLEKCKDVDERNECGQTPLMLAAEQGNVEIVKELLKNGANCNLEDLDNWTALISASKEGHIHIVEELLKSGASLEHRDMGGWTALMWACYKGRTDVVELLLSHGANPSVTGLYSVYPIIWAAGRGHADIVHLLLQNG

binding (Syt4 132–425): no binding
B4: ARMS R1-11 bearing the E14K and E15K variants (domain or fragment, UniProt Q9EQG6 1-365)
chain: MSVLISQSVINYVKKENIPALKALLEKCKDVDERNECGQTPLMLAAEQGNVEIVKELLKNGANCNLEDLDNWTALISASKEGHIHIVEELLKSGASLEHRDMGGWTALMWACYKGRTDVVELLLSHGANPSVTGLYSVYPIIWAAGRGHADIVHLLLQNGAKVNCSDKYGTTPLVWAARKGHLECVKHLLAMGADVDQEGANSMTALIVAVKGGYTQSVKEILKRNPNVNLTDKDGNTALMIASKEGHIEIVQDLLDAGTYVNIPDRSGDTVLIGAVRGGHVEIVRALLQKYADIDIRGQDNKTALYWAVEKGNATMVRDILQCNPDTEICTKDGETPLIKATKMRNIEVVELLLDKGAKVSAVD

binding [2]: no binding
binding [3]: no binding
B5: ARMS ankyrin repeats 1–11 (R1-11, residues 1–365) (domain or fragment, rat, UniProt Q9EQG6 1-365, looked up)
chain: B4 chain with K14E, K15E
notes: ARMS (Kidins220), rat, UniProt Q9EQG6, residues 1-365: ankyrin repeats 1-11; also called ARMS R1-11; ARMS R1-11 WT; source: E. coli BL21 (DE3), purified (Ni-NTA, size-exclusion chromatography)

binding (Syt4 132–425): no binding
B6: ARMS R1-11 E15K (domain or fragment, UniProt Q9EQG6 1-365)
chain: B4 chain with K14E

binding (Syt4 132–425): no binding
B7: ARMS R1-11 W72Q (domain or fragment, UniProt Q9EQG6 1-365)
chain: B4 chain with K14E, K15E, W72Q

binding [4]: no binding
binding [5]: no binding
binding [6]: no binding
B8: ARMS protein N-terminal region (NT, residues 1–455) (domain or fragment, UniProt Q9EQG6 1-455)
chain: MSVLISQSVINYVEEENIPALKALLEKCKDVDERNECGQTPLMLAAEQGNVEIVKELLKNGANCNLEDLDNWTALISASKEGHIHIVEELLKSGASLEHRDMGGWTALMWACYKGRTDVVELLLSHGANPSVTGLYSVYPIIWAAGRGHADIVHLLLQNGAKVNCSDKYGTTPLVWAARKGHLECVKHLLAMGADVDQEGANSMTALIVAVKGGYTQSVKEILKRNPNVNLTDKDGNTALMIASKEGHIEIVQDLLDAGTYVNIPDRSGDTVLIGAVRGGHVEIVRALLQKYADIDIRGQDNKTALYWAVEKGNATMVRDILQCNPDTEICTKDGETPLIKATKMRNIEVVELLLDKGAKVSAVDKKGDTPLHVAIRGRSRRLAELLLRNPKDGRLLYRPNKAGETPYNIDCSHQKSILTQIFGARHLSPTETDGDMLGYDLYSSALADILSEPT
